Test results reported in paper PMC7956269.

B1: Rfc1 (protein, UniProt P35251 1-1148)
chain: MDIRKFFGVIPSGKKLVSETVKKNEKTKSDEETLKAKKGIKEIKVNSSRKEDDFKQKQPSKKKRIIYDSDSESEETLQVKNAKKPPEKLPVSSKPGKISRQDPVTYISETDEEDDFMCKKAASKSKENGRSTNSHLGTSNMKKNEENTKTKNKPLSPIKLTPTSVLDYFGTGSVQRSNKKMVASKRKELSQNTDESGLNDEAIAKQLQLDEDAELERQLHEDEEFARTLAMLDEEPKTKKARKDTEAGETFSSVQANLSKAEKHKYPHKVKTAQVSDERKSYSPRKQSKYESSKESQQHSKSSADKIGEVSSPKASSKLAIMKRKEESSYKEIEPVASKRKENAIKLKGETKTPKKTKSSPAKKESVSPEDSEKKRTNYQAYRSYLNREGPKALGSKEIPKGAENCLEGLIFVITGVLESIERDEAKSLIERYGGKVTGNVSKKTNYLVMGRDSGQSKSDKAAALGTKIIDEDGLLNLIRTMPGKKSKYEIAVETEMKKESKLERTPQKNVQGKRKISPSKKESESKKSRPTSKRDSLAKTIKKETDVFWKSLDFKEQVAEETSGDSKARNLADDSSENKVENLLWVDKYKPTSLKTIIGQQGDQSCANKLLRWLRNWQKSSSEDKKHAAKFGKFSGKDDGSSFKAALLSGPPGVGKTTTASLVCQELGYSYVELNASDTRSKSSLKAIVAESLNNTSIKGFYSNGAASSVSTKHALIMDEVDGMAGNEDRGGIQELIGLIKHTKIPIICMCNDRNHPKIRSLVHYCFDLRFQRPRVEQIKGAMMSIAFKEGLKIPPPAMNEIILGANQDIRQVLHNLSMWCARSKALTYDQAKADSHRAKKDIKMGPFDVARKVFAAGEETAHMSLVDKSDLFFHDYSIAPLFVQENYIHVKPVAAGGDMKKHLMLLSRAADSICDGDLVDSQIRSKQNWSLLPAQAIYASVLPGELMRGYMTQFPTFPSWLGKHSSTGKHDRIVQDLALHMSLRTYSSKRTVNMDYLSLLRDALVQPLTSQGVDGVQDVVALMDTYYLMKEDFENIMEISSWGGKPSPFSKLDPKVKAAFTRAYNKEAHLTPYSLQAIKASRHSTSPSLDSEYNEELNEDDSQSDEKDQDAIETDAMIKKKTKSSKPSKPEKDKEPRKGKGKSSKK
B2: Paics (protein, UniProt P22234 1-425)
chain: MATAEVLNIGKKLYEGKTKEVYELLDSPGKVLLQSKDQITAGNAARKNHLEGKAAISNKITSCIFQLLQEAGIKTAFTRKCGETAFIAPQCEMIPIEWVCRRIATGSFLKRNPGVKEGYKFYPPKVELFFKDDANNDPQWSEEQLIAAKFCFAGLLIGQTEVDIMSHATQAIFEILEKSWLPQNCTLVDMKIEFGVDVTTKEIVLADVIDNDSWRLWPSGDRSQQKDKQSYRDLKEVTPEGLQMVKKNFEWVAERVELLLKSESQCRVVVLMGSTSDLGHCEKIKKACGNFGIPCELRVTSAHKGPDETLRIKAEYEGDGIPTVFVAVAGRSNGLGPVMSGNTAYPVISCPPLTPDWGVQDVWSSLRLPSGLGCSTVLSPEGSAQFAAQIFGLSNHLVWSKLRASILNTWISLKQADKKIRECNL
B3: Hsd17b11 (protein, UniProt Q8NBQ5 20-300)
chain: ESFVKLFIPKRRKSVTGEIVLITGAGHGIGRLTAYEFAKLKSKLVLWDINKHGLEETAAKCKGLGAKVHTFVVDCSNREDIYSSAKKVKAEIGDVSILVNNAGVVYTSDLFATQDPQIEKTFEVNVLAHFWTTKAFLPAMTKNNHGHIVTVASAAGHVSVPFLLAYCSSKFAAVGFHKTLTDELAALQITGVKTTCLCPNFVNTGFIKNPSTSLGPTLEPEEVVNRLMHGILTEQKMIFIPSSIAFLTTLERILPERFLAVLKRKISVKFDAVIGYKMKAQ
B4: Brap (protein, UniProt Q7Z569 1-592)
chain: MSVSLVVIRLELAEHSPVPAGFGFSAAAGEMSDEEIKKTTLASAVACLEGKSPGEKVAIIHQHLGRREMTDVIIETMKSNPDELKTTVEERKSSEASPTAQRSKDHSKECINAAPDSPSKQLPDQISFFSGNPSVEIVHGIMHLYKTNKMTSLKEDVRRSAMLCILTVPAAMTSHDLMKFVAPFNEVIEQMKIIRDSTPNQYMVLIKFRAQADADSFYMTCNGRQFNSIEDDVCQLVYVERAEVLKSEDGASLPVMDLTELPKCTVCLERMDESVNGILTTLCNHSFHSQCLQRWDDTTCPVCRYCQTPEPVEENKCFECGVQENLWICLICGHIGCGRYVSRHAYKHFEETQHTYAMQLTNHRVWDYAGDNYVHRLVASKTDGKIVQYECEGDTCQEEKIDALQLEYSYLLTSQLESQRIYWENKIVRIEKDTAEEINNMKTKFKETIEKCDNLEHKLNDLLKEKQSVERKCTQLNTKVAKLTNELKEEQEMNKCLRANQVLLQNKLKEEERVLKETCDQKDLQITEIQEQLRDVMFYLETQQKINHLPAETRQEIQEGQINIAMASASSPASSGGSGKLPSRKGRSKRGK
B5: Jup (protein, UniProt P14923 1-745)
chain: MEVMNLMEQPIKVTEWQQTYTYDSGIHSGANTCVPSVSSKGIMEEDEACGRQYTLKKTTTYTQGVPPSQGDLEYQMSTTARAKRVREAMCPGVSGEDSSLLLATQVEGQATNLQRLAEPSQLLKSAIVHLINYQDDAELATRALPELTKLLNDEDPVVVTKAAMIVNQLSKKEASRRALMGSPQLVAAVVRTMQNTSDLDTARCTTSILHNLSHHREGLLAIFKSGGIPALVRMLSSPVESVLFYAITTLHNLLLYQEGAKMAVRLADGLQKMVPLLNKNNPKFLAITTDCLQLLAYGNQESKLIILANGGPQALVQIMRNYSYEKLLWTTSRVLKVLSVCPSNKPAIVEAGGMQALGKHLTSNSPRLVQNCLWTLRNLSDVATKQEGLESVLKILVNQLSVDDVNVLTCATGTLSNLTCNNSKNKTLVTQNSGVEALIHAILRAGDKDDITEPAVCALRHLTSRHPEAEMAQNSVRLNYGIPAIVKLLNQPNQWPLVKATIGLIRNLALCPANHAPLQEAAVIPRLVQLLVKAHQDAQRHVAAGTQQPYTDGVRMEEIVEGCTGALHILARDPMNRMEIFRLNTIPLFVQLLYSSVENIQRVAAGVLCELAQDKEAADAIDAEGASAPLMELLHSRNEGTATYAAAVLFRISEDKNPDYRKRVSVELTNSLFKHDPAAWEAAQSMIPINEPYGDDMDATYRPMYSSDVPLDPLEMHMDMDGDYPIDTYSDGLRPPYPTADHMLA
B6: Asns (protein, UniProt P08243 1-561)
chain: MCGIWALFGSDDCLSVQCLSAMKIAHRGPDAFRFENVNGYTNCCFGFHRLAVVDPLFGMQPIRVKKYPYLWLCYNGEIYNHKKMQQHFEFEYQTKVDGEIILHLYDKGGIEQTICMLDGVFAFVLLDTANKKVFLGRDTYGVRPLFKAMTEDGFLAVCSEAKGLVTLKHSATPFLKVEPFLPGHYEVLDLKPNGKVASVEMVKYHHCRDVPLHALYDNVEKLFPGFEIETVKNNLRILFNNAVKKRLMTDRRIGCLLSGGLDSSLVAATLLKQLKEAQVQYPLQTFAIGMEDSPDLLAARKVADHIGSEHYEVLFNSEEGIQALDEVIFSLETYDITTVRASVGMYLISKYIRKNTDSVVIFSGEGSDELTQGYIYFHKAPSPEKAEEESERLLRELYLFDVLRADRTTAAHGLELRVPFLDHRFSSYYLSLPPEMRIPKNGIEKHLLRETFEDSNLIPKEILWRPKEAFSDGITSVKNSWFKILQEYVEHQVDDAMMANAAQKFPFNTPKTKEGYYYRQVFERHYPGRADWLSHYWMPKWINATDPSARTLTHYKSAVKA
B7: Agk (protein, UniProt Q53H12 1-422)
chain: MTVFFKTLRNHWKKTTAGLCLLTWGGHWLYGKHCDNLLRRAACQEAQVFGNQLIPPNAQVKKATVFLNPAACKGKARTLFEKNAAPILHLSGMDVTIVKTDYEGQAKKLLELMENTDVIIVAGGDGTLQEVVTGVLRRTDEATFSKIPIGFIPLGETSSLSHTLFAESGNKVQHITDATLAIVKGETVPLDVLQIKGEKEQPVFAMTGLRWGSFRDAGVKVSKYWYLGPLKIKAAHFFSTLKEWPQTHQASISYTGPTERPPNEPEETPVQRPSLYRRILRRLASYWAQPQDALSQEVSPEVWKDVQLSTIELSITTRNNQLDPTSKEDFLNICIEPDTISKGDFITIGSRKVRNPKLHVEGTECLQASQCTLLIPEGAGGSFSIDSEEYEAMPVEVKLLPRKLQFFCDPRKREQMLTSPTQ
B8: Arcn1 (protein, UniProt P48444 1-511)
chain: MVLLAAAVCTKAGKAIVSRQFVEMTRTRIEGLLAAFPKLMNTGKQHTFVETESVRYVYQPMEKLYMVLITTKNSNILEDLETLRLFSRVIPEYCRALEENEISEHCFDLIFAFDEIVALGYRENVNLAQIRTFTEMDSHEEKVFRAVRETQEREAKAEMRRKAKELQQARRDAERQGKKAPGFGGFGSSAVSGGSTAAMITETIIETDKPKVAPAPARPSGPSKALKLGAKGKEVDNFVDKLKSEGETIMSSSMGKRTSEATKMHAPPINMESVHMKIEEKITLTCGRDGGLQNMELHGMIMLRISDDKYGRIRLHVENEDKKGVQLQTHPNVDKKLFTAESLIGLKNPEKSFPVNSDVGVLKWRLQTTEESFIPLTINCWPSESGNGCDVNIEYELQEDNLELNDVVITIPLPSGVGAPVIGEIDGEYRHDSRRNTLEWCLPVIDAKNKSGSLEFSIAGQPNDFFPVQVSFVSKKNYCNIQVTKVTQVDGNSPVRFSTETTFLVDKYEIL
B9: Imp3 (protein, UniProt Q9NV31 1-184)
chain: MVRKLKFHEQKLLKQVDFLNWEVTDHNLHELRVLRRYRLQRREDYTRYNQLSRAVRELARRLRDLPERDQFRVRASAALLDKLYALGLVPTRGSLELCDFVTASSFCRRRLPTVLLKLRMAQHLQAAVAFVEQGHVRVGPDVVTDPAFLVTRSMEDFVTWVDSSKIKRHVLEYNEERDDFDLEA
B10: Cct2 (protein, UniProt P78371 1-535)
chain: MASLSLAPVNIFKAGADEERAETARLTSFIGAIAIGDLVKSTLGPKGMDKILLSSGRDASLMVTNDGATILKNIGVDNPAAKVLVDMSRVQDDEVGDGTTSVTVLAAELLREAESLIAKKIHPQTIIAGWREATKAAREALLSSAVDHGSDEVKFRQDLMNIAGTTLSSKLLTHHKDHFTKLAVEAVLRLKGSGNLEAIHIIKKLGGSLADSYLDEGFLLDKKIGVNQPKRIENAKILIANTGMDTDKIKIFGSRVRVDSTAKVAEIEHAEKEKMKEKVERILKHGINCFINRQLIYNYPEQLFGAAGVMAIEHADFAGVERLALVTGGEIASTFDHPELVKLGSCKLIEEVMIGEDKLIHFSGVALGEACTIVLRGATQQILDEAERSLHDALCVLAQTVKDSRTVYGGGCSEMLMAHAVTQLANRTPGKEAVAMESYAKALRMLPTIIADNAGYDSADLVAQLRAAHSEGNTTAGLDMREGTIGDMAILGITESFQVKRQVLLSAAEAAEVILRVDNIIKAAPRKRVPDHHPC

Molecular target: Biotin-FOXC1 (mouse) (UniProt Q61572)
Assay: affinity purification with mass spectrometry; streptavidin-agarose precipitation of biotinylated FOXC1 from nuclear extract of stable HEK293T cells (293T-Biotin-FOXC1); IP350 buffer (350 mM NaCl, 20 mM Tris-HCl pH 7.5, 0.5% NP40, 1 mM EDTA, 10% glycerin); SDS-PAGE, LC-ESI-MS/MS; proteins of the 293T-Biotin control deducted

With B1 as the binder, how does the binding read?
Its binding is “binds”.

With B2 as the binder, how does the binding read?
The binding was “binds”.

How did the binding turn out when B3 was run?
The binding was “binds”.

With B4 as the binder, how does the binding read?
The binding was “binds”.

B5 was tested. Which binding did it give?
The binding was “binds”.

How did the binding turn out when B6 was run?
The binding was “binds”.

Which binding does the source give for B7 here?
Its binding is “binds”.

For B8, which binding is on record?
The binding was “binds”.

How did the binding turn out when B9 was run?
Its binding is “binds”.

B10 was tested. Which binding did it give?
Its binding is “binds”.

No constants are given. Whether binding was seen depends on the method and setting. Binding seen in cells or lysates may run through a third protein. A yes stands for co-enrichment or nearness to the bait. Other partners may have been found.
